Data: patent US20240277713A1 (Kadmon Corporation, LLC, priority 2022, published 2024)
At least one compound was matched to its structure with a doubt left.

System: chronic GVHD
Test: animal models of chronic GVHD
Conditions: in vivo

## CC(C)NC(=O)COc1cccc(-c2nc(Nc3ccc4[nH]ncc4c3)c3ccccc3n2)c1 [belumosudil, 2-{3-[4-(1H-indazol-5-ylamino)-2-quinazolinyl]phenoxy}-N-(propan-2-yl) acetamide]
  activity in animal models of chronic GVHD: demonstrated activity in animal models of chronic GVHD
